# Results from article PMC10788198.
# Amino acid sequences for entries named in this document (tags omitted).
# UniProt Q9UKE5: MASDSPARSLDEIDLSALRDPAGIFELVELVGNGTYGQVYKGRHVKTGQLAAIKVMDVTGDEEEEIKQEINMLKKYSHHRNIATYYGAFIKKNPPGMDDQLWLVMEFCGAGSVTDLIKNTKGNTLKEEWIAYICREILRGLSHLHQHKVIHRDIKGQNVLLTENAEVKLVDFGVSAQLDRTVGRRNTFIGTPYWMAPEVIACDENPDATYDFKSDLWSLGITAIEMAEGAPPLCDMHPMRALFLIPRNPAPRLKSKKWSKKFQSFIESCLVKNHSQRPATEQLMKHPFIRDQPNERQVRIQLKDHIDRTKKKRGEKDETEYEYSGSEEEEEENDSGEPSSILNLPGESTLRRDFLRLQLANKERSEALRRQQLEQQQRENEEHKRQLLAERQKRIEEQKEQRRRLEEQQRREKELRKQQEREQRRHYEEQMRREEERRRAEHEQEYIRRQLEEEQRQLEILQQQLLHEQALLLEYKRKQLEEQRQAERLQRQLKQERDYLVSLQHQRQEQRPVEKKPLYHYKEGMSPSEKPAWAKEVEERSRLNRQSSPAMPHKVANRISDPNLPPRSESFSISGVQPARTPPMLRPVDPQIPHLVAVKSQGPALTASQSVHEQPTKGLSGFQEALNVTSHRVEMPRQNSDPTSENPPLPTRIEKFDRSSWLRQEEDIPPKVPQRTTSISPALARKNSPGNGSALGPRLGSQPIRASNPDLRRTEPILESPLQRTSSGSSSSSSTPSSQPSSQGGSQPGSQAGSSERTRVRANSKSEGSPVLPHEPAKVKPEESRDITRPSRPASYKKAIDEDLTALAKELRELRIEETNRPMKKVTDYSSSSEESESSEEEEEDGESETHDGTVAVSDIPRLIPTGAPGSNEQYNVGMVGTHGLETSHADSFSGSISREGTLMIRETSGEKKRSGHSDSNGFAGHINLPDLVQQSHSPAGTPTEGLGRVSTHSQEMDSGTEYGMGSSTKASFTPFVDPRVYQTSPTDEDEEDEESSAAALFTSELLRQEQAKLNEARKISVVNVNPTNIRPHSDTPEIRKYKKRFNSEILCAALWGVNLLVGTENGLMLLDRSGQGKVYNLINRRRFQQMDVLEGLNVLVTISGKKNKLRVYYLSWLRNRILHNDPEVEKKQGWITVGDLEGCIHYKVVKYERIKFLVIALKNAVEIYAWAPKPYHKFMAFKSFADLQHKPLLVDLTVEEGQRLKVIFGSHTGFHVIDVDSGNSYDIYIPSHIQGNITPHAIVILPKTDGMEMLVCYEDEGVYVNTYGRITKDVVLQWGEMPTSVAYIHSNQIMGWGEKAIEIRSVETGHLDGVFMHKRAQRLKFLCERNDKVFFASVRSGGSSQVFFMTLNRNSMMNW
# These are yes or no findings as the source states them, for the method shown. Binding seen in cells or lysates may run through a third protein. Some results given as binding are weak or reduced against the parent protein; the word gives no strength.
# Molecular target: Traf2- and Nck-interacting kinase (TNIK), endogenous (human (endogenous in C4-2)) (UniProt Q9UKE5)
# Assay: co-IP; endogenous proteins; immunoprecipitation of TNIK (and of EGFR) from C4-2 lysates, immunoblot of EGFR or TNIK
substance,measurement,value
"epidermal growth factor receptor (EGFR), endogenous (from UniProt P00533 25-1210)",binding,binds
